We go through two compounds from patent publication US5470852A, “Tetrahydroprotoberberine quaternary ammonium compounds useful in for treating arrhythmia” (priority 1991, dated 1995).

The subject of one test is anaesthetized rats. Conditions: X ± SD.
The test system of the next test is rabbits. In words: Electrically-induced ventricular fibrillation threshold (VFT) in rabbits. It counts as in vivo, rabbit. Conditions: iv 15 mg/kg.

Each structure is given as a SMILES string. Read-outs that look alike come from different tables or passages of the source.

`CCN(CC)CC(=O)Nc1c(C)cccc1C` [Lidocaine, reference compound]: the “Lethal risk” value with anaesthetized rats (iv 1.0 mg/kg) is given as 56 ± 24; in the test with anaesthetized rats (iv 3.0 mg/kg), 41 ± 0. The “AUC (area under curve, VFT effect)” value in the test with rabbits is reported as 11.4.

For the compound `CCCNCC(O)COc1ccccc1C(=O)CCc1ccccc1` (centres unmarked) [propafenon, reference compound], the “Lethal risk” value was 59 ± 29 in the test on anaesthetized rats (po 10 mg/kg) and 41 ± 0 in the test with anaesthetized rats (po 30 mg/kg).
